The source of these data is article PMC4811774.

Protein sequences, listed by entry. Tags and fused reporters are not part of them. Lines headed by an entry give the natural chain unless they say otherwise; changes in a name come on top.
UniProt O81283: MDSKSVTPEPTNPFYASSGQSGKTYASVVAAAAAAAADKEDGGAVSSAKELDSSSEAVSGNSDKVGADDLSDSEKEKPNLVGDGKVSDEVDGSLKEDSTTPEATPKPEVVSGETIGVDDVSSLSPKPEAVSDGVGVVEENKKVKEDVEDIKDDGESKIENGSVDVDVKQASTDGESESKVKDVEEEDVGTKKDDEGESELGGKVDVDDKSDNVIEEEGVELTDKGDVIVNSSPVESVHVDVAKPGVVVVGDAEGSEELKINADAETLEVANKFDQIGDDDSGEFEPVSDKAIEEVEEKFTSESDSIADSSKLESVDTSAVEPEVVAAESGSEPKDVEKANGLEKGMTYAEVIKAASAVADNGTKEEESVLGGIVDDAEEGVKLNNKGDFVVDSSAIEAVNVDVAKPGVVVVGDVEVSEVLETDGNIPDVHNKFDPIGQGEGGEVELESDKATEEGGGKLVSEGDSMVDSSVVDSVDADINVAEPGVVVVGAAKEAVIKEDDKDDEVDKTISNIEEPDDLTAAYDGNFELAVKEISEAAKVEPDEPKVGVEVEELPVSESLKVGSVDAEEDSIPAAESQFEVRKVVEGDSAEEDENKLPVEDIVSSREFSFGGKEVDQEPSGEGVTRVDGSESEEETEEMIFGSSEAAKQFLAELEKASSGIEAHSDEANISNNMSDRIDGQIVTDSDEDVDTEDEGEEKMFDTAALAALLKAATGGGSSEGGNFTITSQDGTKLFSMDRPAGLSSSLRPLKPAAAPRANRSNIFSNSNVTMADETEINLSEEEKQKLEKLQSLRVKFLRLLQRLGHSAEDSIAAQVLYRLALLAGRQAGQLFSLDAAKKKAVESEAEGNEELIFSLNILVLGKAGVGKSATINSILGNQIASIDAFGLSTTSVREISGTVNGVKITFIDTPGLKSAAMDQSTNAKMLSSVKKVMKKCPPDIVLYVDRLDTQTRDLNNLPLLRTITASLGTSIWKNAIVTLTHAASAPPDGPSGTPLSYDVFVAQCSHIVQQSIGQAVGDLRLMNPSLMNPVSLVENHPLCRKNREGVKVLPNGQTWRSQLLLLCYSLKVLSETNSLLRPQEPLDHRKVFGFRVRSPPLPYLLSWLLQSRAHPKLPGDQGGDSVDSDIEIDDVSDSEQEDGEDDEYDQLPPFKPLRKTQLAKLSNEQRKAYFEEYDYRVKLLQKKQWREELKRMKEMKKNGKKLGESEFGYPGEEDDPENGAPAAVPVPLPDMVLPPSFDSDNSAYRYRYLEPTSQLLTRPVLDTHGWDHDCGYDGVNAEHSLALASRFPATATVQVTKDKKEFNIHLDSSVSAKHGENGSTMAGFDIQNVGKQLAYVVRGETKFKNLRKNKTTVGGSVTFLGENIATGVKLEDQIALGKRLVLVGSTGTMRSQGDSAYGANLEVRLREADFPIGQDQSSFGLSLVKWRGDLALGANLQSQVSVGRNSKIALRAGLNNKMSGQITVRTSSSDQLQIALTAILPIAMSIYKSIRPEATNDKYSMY
UniProt Q9STE8: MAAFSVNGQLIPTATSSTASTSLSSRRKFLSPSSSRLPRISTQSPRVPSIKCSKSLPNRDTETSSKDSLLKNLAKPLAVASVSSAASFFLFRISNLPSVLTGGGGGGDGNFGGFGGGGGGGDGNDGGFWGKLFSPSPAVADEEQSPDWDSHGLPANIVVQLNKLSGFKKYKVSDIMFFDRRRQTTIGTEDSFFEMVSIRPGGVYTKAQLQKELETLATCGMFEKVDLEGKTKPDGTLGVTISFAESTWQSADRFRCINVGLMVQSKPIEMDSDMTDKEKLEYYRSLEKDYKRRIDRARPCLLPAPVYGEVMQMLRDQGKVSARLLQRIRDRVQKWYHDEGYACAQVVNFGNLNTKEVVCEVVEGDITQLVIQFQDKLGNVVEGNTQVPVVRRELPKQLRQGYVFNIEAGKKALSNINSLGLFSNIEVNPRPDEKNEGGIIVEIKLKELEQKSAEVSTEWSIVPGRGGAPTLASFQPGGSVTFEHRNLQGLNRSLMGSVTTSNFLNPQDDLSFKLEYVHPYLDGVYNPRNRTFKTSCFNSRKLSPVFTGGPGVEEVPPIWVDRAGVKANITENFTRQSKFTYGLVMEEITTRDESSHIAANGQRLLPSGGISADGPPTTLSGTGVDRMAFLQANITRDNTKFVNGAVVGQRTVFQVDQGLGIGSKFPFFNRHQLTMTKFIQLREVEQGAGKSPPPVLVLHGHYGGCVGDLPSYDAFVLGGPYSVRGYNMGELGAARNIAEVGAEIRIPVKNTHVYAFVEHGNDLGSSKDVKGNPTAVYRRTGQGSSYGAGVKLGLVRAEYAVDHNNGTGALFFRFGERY

Results are given in words; binding and its absence hold for the method and conditions named. Binding can be weak; no strength is given. For part of these data: Binding seen in cells or lysates may run through a third protein.

The target in experiment [1] is T1, Toc33 (Arabidopsis thaliana (endogenous in chloroplasts)) (UniProt O23680).
T1 sequence: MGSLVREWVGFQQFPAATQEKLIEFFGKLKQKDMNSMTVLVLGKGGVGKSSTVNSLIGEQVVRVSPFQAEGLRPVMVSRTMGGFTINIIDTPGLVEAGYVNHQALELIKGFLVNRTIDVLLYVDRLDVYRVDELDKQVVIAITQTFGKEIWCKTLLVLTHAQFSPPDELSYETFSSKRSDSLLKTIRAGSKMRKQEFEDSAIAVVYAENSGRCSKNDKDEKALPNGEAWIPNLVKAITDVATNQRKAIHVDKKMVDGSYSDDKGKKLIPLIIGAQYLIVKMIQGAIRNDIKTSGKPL
The experiment in a line: co-IP; immunoaffinity chromatography of detergent-soluble chloroplast membranes from TOC75, TOC75ΔP1#2 and TOC75ΔP1-2#2 plants on anti-atToc33 Sepharose under native conditions; eluates immunoblotted. Background: Immunoblotting shows a protein as a band on a membrane.

Experiment [2] concerns the target T1, Toc33 (Arabidopsis thaliana (endogenous in chloroplasts)). The experiment in a line: native gel or EMSA; 2D blue-native PAGE: chloroplast membranes solubilised in 1% decylmaltoside, 4-12% BN-PAGE at 4°C, then 5-12% SDS-PAGE and immunoblotting; co-migration. In general terms: A gel shift assay detects complexes by their altered migration in electrophoresis.
Experiment [3] addresses Toc159 (Arabidopsis thaliana (endogenous in chloroplasts)) (UniProt O81283). The description is as above.

As for Toc75ΔP1 (from UniProt Q9STE8), the binding entry in experiment [1], in experiment [2] and in experiment [3] was “binds” each time.

With Toc75ΔP1-2 (from UniProt Q9STE8), the binding result in experiment [1] is “binds”; in experiment [2] it was “binds”; in experiment [3], “no binding”.
